In this assay the target is T1, Peroxisome proliferator-activated receptor gamma coactivator 1 alpha (PGC1α) (UniProt Q9UBK2).
T1 sequence: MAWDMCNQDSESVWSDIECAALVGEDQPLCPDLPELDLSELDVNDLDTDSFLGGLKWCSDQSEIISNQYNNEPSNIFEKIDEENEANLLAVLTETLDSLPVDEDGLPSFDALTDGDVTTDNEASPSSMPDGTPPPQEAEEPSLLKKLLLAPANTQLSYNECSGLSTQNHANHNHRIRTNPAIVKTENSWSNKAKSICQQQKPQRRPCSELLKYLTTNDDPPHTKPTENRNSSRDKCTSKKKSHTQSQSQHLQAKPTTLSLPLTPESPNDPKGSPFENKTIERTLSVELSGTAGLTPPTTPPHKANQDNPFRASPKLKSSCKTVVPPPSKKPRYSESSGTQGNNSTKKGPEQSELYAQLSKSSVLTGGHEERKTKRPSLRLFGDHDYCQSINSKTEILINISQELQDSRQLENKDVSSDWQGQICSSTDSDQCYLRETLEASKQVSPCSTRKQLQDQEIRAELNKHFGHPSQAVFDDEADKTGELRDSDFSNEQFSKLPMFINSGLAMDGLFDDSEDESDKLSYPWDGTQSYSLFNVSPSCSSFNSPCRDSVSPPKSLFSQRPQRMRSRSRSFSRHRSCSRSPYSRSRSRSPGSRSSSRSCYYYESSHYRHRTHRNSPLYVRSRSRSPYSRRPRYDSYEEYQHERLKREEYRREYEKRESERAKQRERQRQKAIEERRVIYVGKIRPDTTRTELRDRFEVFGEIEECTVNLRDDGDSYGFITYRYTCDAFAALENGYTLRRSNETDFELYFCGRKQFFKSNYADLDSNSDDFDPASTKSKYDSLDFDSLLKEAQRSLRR
Kind of assay: co-IP; lysate of rPGC1α-treated BC cells, pre-cleared with protein-G agarose; anti-PGC1α or control IgG, protein-G agarose beads overnight at 4 °C; western blot for ERRα in input, IgG and PGC1α immunoprecipitates. Background: In western blotting, separated proteins are transferred to a membrane and probed.

Experimental findings from PMC10529029 are described below.

These are yes or no findings as the source states them, for the method shown. In cells and extracts the contact can be indirect. Some binding calls cover weakened binding; strength is not graded here.

B1: Estrogen-related receptor alpha (ERRα) (protein, UniProt P11474 1-423)
chain: MSSQVVGIEPLYIKAEPASPDSPKGSSETETEPPVALAPGPAPTRCLPGHKEEEDGEGAGPGEQGGGKLVLSSLPKRLCLVCGDVASGYHYGVASCEACKAFFKRTIQGSIEYSCPASNECEITKRRRKACQACRFTKCLRVGMLKEGVRLDRVRGGRQKYKRRPEVDPLPFPGPFPAGPLAVAGGPRKTAAPVNALVSHLLVVEPEKLYAMPDPAGPDGHLPAVATLCDLFDREIVVTISWAKSIPGFSSLSLSDQMSVLQSVWMEVLVLGVAQRSLPLQDELAFAEDLVLDEEGARAAGLGELGAALLQLVRRLQALRLEREEYVLLKALALANSDSVHIEDAEAVEQLREALHEALLEYEAGRAGPGGGAERRRAGRLLLTLPLLRQTAGKVLAHFYGVKLEGKVPMHKLFLEMLEAMMD
Take B1: the binding entry is given as “binds”.
